According to PMC2856662:
No constants are given. Whether binding was seen depends on the method and setting. Binding seen in cells or lysates may run through a third protein. Some entries that bind do so weakly or less than the wild type.

Protein sequences, listed by entry. Tags and fused reporters are not part of them.
UniProt P25025: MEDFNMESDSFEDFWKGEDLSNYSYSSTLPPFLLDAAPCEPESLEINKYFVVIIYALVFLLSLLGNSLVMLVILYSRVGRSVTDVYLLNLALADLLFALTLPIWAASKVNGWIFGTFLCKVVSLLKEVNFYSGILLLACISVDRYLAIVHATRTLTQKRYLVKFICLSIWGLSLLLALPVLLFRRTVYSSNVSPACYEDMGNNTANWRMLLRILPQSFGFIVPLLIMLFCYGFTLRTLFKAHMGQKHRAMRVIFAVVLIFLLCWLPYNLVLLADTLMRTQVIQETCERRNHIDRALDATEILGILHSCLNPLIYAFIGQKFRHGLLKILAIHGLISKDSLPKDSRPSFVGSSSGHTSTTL
UniProt P61073: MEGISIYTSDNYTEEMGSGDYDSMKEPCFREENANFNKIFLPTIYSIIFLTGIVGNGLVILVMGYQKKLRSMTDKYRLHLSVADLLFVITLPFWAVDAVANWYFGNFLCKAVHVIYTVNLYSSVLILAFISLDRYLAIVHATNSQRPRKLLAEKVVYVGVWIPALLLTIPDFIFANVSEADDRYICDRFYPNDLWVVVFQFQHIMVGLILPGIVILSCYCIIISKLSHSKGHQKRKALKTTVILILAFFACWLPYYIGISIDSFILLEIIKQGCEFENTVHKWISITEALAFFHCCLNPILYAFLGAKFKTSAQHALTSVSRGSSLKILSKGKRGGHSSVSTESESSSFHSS

What was measured:
[1] = target: CXCR2 (human chemokine receptor, stably expressed) (human) (UniProt P25025); assay: co-IP; lysates (1.5 mg) of 293-CXCR2 cells transiently over-expressing HA-LIM-LIM-CAAX, vehicle (0 min) or 100 ng/ml CXCL8 for 5 and 10 min; mouse anti-CXCR2 antibody pre-bound to Protein A/G Sepharose; blots for LIM-LIM-CAAX and endogenous LASP-1
[2] = target: HA-tagged CXCR4 (stably expressed in HEK-293) (human) (UniProt P61073); assay: co-IP; lysates of 293-HA-CXCR4 cells, vehicle (0 min) or CXCL12 for 5, 10, 20 and 30 min; mouse anti-HA antibody cross-linked to Protein A/G Sepharose; blot for endogenous LASP-1
[3] = target: CXCR2 (human chemokine receptor, stably expressed) (human) (UniProt P25025); assay: co-IP; lysates of 293-CXCR2 cells, vehicle (0 min) or 100 ng/ml CXCL8 for 5, 10, 20 and 30 min; mouse anti-CXCR2 antibody pre-bound to Protein A/G Sepharose; blot for endogenous LASP-1
[4] = target: CXCR2 (human chemokine receptor, stably expressed) (human) (UniProt P25025); assay: co-IP; lysates of dHL-60 CXCR2 cells, vehicle (0 min) or 100 ng/ml CXCL8 for 1, 2 and 5 min; mouse anti-CXCR2 antibody pre-bound to Protein A/G Sepharose; blot for endogenous LASP-1

Measured: binding

B1: LIM and SH3 protein 1 (LASP-1), endogenous (protein, UniProt Q14847 1-261)
chain: MNPNCARCGKIVYPTEKVNCLDKFWHKACFHCETCKMTLNMKNYKGYEKKPYCNAHYPKQSFTMVADTPENLRLKQQSELQSQVRYKEEFEKNKGKGFSVVADTPELQRIKKTQDQISNIKYHEEFEKSRMGPSGGEGMEPERRDSQDGSSYRRPLEQQQPHHIPTSAPVYQQPQQQPVAQSYGGYKEPAAPVSIQRSAPGGGGKRYRAVYDYSAADEDEVSFQDGDTIVNVQQIDDGWMYGTVERTGDTGMLPANYVEAI
binds: [1] | [2] | [3] | [4]
